{"source": "the supplement of paper PMC5949888", "note": "Most values lie at the floor of the assay. Slopes are relative: functional sequences can read slightly below zero.", "data": [{"test_system": "Saccharomyces cerevisiae PS128 hsf1 delta, HSF1(1-493) fusion", "assay": "growth estimate (transactivation domain function in HSF1 fusion, heat-shock survival) (a.u. (slope of normalised read count over time)); higher = stronger growth at 37°C, i.e. more transactivation activity", "conditions": "library: random library", "values": [{"substance": "SRAGDRFLRSPYPSLGRPCC", "growth estimate": "< -0.25"}, {"substance": "SRAGMGFGSSSGRYSSTTRR", "growth estimate": "< -0.25"}, {"substance": "SRASQLSYAGDRLVRGA", "growth estimate": "< -0.25"}, {"substance": "SRASTLENAIVGDSKVVSGH", "growth estimate": "< -0.25"}, {"substance": "SRAWAKSLCVSVWPHNKLRS", "growth estimate": "< -0.25"}, {"substance": "SRAY", "growth estimate": "< -0.25"}, {"substance": "SRCDLFNTLAVRIGFLLVCG", "growth estimate": "< -0.25"}, {"substance": "SRCEVLHRVNMLAAG", "growth estimate": "< -0.25"}, {"substance": "SRCGVVSDPEEEHTDRPSTS", "growth estimate": "< -0.25"}, {"substance": "SRCY", "growth estimate": "< -0.25"}, {"substance": "SRDGSTSCIIATPNARRSRA", "growth estimate": "< -0.25"}, {"substance": "SRDRCEGASHQDKTCGNYV", "growth estimate": "< -0.25"}, {"substance": "SRDRVELGFHCSHKLSDLRL", "growth estimate": "< -0.25"}, {"substance": "SREFICECRSSTLPAKETIT", "growth estimate": "< -0.25"}, {"substance": "SREKVREKCVRMFTQRGRGA", "growth estimate": "< -0.25"}, {"substance": "SRFGVTVSVRLPGTGNSVVI", "growth estimate": "< -0.25"}, {"substance": "SRFLAYWSVERF", "growth estimate": -0.0727}, {"substance": "SRGAKPATRKIAQSATT", "growth estimate": "< -0.25"}, {"substance": "SRGCTVHGMFYGVHIWPALA", "growth estimate": "< -0.25"}, {"substance": "SRGIRDVTPESGIGVELLPK", "growth estimate": "< -0.25"}, {"substance": "SRGLLWNQFWRQ", "growth estimate": "< -0.25"}, {"substance": "SRGPCSLVIPLTAAAF", "growth estimate": "< -0.25"}, {"substance": "SRGRQFTGSAGPARRQLSSQ", "growth estimate": "< -0.25"}, {"substance": "SRGSICQYAVCRQE", "growth estimate": "< -0.25"}, {"substance": "SRGVQATR", "growth estimate": "< -0.25"}, {"substance": "SRHAFGGVRKILEAPTGGPG", "growth estimate": "< -0.25"}, {"substance": "SRHRDQYMVLTGGQDAQAIG", "growth estimate": -0.227}, {"substance": "SRHRTITVSTNL", "growth estimate": "< -0.25"}, {"substance": "SRHSCRAFQLVDLVKCG", "growth estimate": "< -0.25"}, {"substance": "SRIAVYGREET", "growth estimate": "< -0.25"}, {"substance": "SRIEISESGCVYLSTHRARI", "growth estimate": "< -0.25"}, {"substance": "SRIIKRIKHGCFKLNLFCAL", "growth estimate": "< -0.25"}, {"substance": "SRILYGVNHGRRTDGLETDP", "growth estimate": "< -0.25"}, {"substance": "SRIQLYGLSLHTLAGLRLPR", "growth estimate": "< -0.25"}, {"substance": "SRKLRGFG", "growth estimate": "< -0.25"}, {"substance": "SRKMLKQVRASRCVDGV", "growth estimate": "< -0.25"}, {"substance": "SRKR", "growth estimate": "< -0.25"}, {"substance": "SRKSLISGNL", "growth estimate": "< -0.25"}, {"substance": "SRLILAKASQPRPTSSRGVY", "growth estimate": "< -0.25"}, {"substance": "SRLRGPGCSCMKDTMAQTLL", "growth estimate": "< -0.25"}, {"substance": "SRLSINLHTRCLERKGITDA", "growth estimate": "< -0.25"}, {"substance": "SRLSNFLVPRPKAYRAVRYA", "growth estimate": "< -0.25"}, {"substance": "SRLWKH", "growth estimate": "< -0.25"}, {"substance": "SRNGRSRVH", "growth estimate": "< -0.25"}, {"substance": "SRNSFSDAYPEEPLYNHARL", "growth estimate": "< -0.25"}, {"substance": "SRPCQGKFEDGDTDDGRHGV", "growth estimate": "< -0.25"}, {"substance": "SRPFNE", "growth estimate": "< -0.25"}, {"substance": "SRPGSRVYRI", "growth estimate": "< -0.25"}, {"substance": "SRQPWLC", "growth estimate": "< -0.25"}, {"substance": "SRQSIDRNPGNNIFVHNQRA", "growth estimate": "< -0.25"}, {"substance": "SRQVQRREPPLASDQTIAGY", "growth estimate": "< -0.25"}, {"substance": "SRRCKIVRYPNLPSDRPKPA", "growth estimate": "< -0.25"}, {"substance": "SRRCRVNVL", "growth estimate": "< -0.25"}, {"substance": "SRRG", "growth estimate": -0.243}, {"substance": "SRRGTTRLYCVMACG", "growth estimate": "< -0.25"}, {"substance": "SRRRLSVLIVFIRMTNAVR", "growth estimate": "< -0.25"}, {"substance": "SRRSFGTASGVAPARY", "growth estimate": "< -0.25"}, {"substance": "SRRVQVDTS", "growth estimate": "< -0.25"}, {"substance": "SRRWALHRPKQFVCYQLALL", "growth estimate": "< -0.25"}, {"substance": "SRSATTRQSDR", "growth estimate": "< -0.25"}, {"substance": "SRSEAPPAF", "growth estimate": "< -0.25"}, {"substance": "SRSEGPTPERQNVLTLTNAS", "growth estimate": -0.246}, {"substance": "SRSIGVYCSFKKQQRRWESS", "growth estimate": "< -0.25"}, {"substance": "SRSLANLN", "growth estimate": "< -0.25"}, {"substance": "SRSLD", "growth estimate": "< -0.25"}, {"substance": "SRTANEGQLADLSRRALRGS", "growth estimate": "< -0.25"}, {"substance": "SRTIVGVLPVPEV", "growth estimate": "< -0.25"}, {"substance": "SRTNLMSKDWVSINMGPYCW", "growth estimate": "< -0.25"}, {"substance": "SRTPRVVIRGMRRMDLRCLN", "growth estimate": "< -0.25"}, {"substance": "SRTRQPGGSFRCMGEGLITN", "growth estimate": "< -0.25"}, {"substance": "SRVALGGMAGVAKGTF", "growth estimate": "< -0.25"}, {"substance": "SRVGEC", "growth estimate": "< -0.25"}, {"substance": "SRVILGPPADRGASYGEIGR", "growth estimate": "< -0.25"}, {"substance": "SRVKASVTCIRWHYGHVLSA", "growth estimate": "< -0.25"}, {"substance": "SRVRLACVPVCHTGLTYQCS", "growth estimate": "< -0.25"}, {"substance": "SRVRLRGAFASCSDTQWMRT", "growth estimate": "< -0.25"}, {"substance": "SRVRWGSVLLLSCT", "growth estimate": "< -0.25"}, {"substance": "SRVTKWDRLLVGPALVARGG", "growth estimate": "< -0.25"}, {"substance": "SRVVLQGPWFNVVPRWWFPQ", "growth estimate": "< -0.25"}, {"substance": "SRWDLVVKAVEGRGCCCARF", "growth estimate": "< -0.25"}, {"substance": "SRWLAPVKLPTGTNGQVRLD", "growth estimate": "< -0.25"}, {"substance": "SRYLR", "growth estimate": "< -0.25"}, {"substance": "SRYMVRE", "growth estimate": "< -0.25"}, {"substance": "SRYQCSLGSYNFRKGAWVFP", "growth estimate": "< -0.25"}, {"substance": "SRYVSSIGADTIKSVVVQLS", "growth estimate": "< -0.25"}, {"substance": "SSAGSGMRDFLKSLYGNRAL", "growth estimate": -0.241}, {"substance": "SSAIL", "growth estimate": "< -0.25"}, {"substance": "SSAMDCVLSAPEVY", "growth estimate": "< -0.25"}, {"substance": "SSARKQNTLVPD", "growth estimate": "< -0.25"}, {"substance": "SSATSWIPRWNRKSGAPHVG", "growth estimate": "< -0.25"}, {"substance": "SSAYVV", "growth estimate": "< -0.25"}, {"substance": "SSCDV", "growth estimate": "< -0.25"}, {"substance": "SSCGTRQSPSRIILIWVRAI", "growth estimate": "< -0.25"}, {"substance": "SSCNTIRMRSPAAVSVYDPI", "growth estimate": "< -0.25"}, {"substance": "SSCRNICAGRDGGGQEPPSD", "growth estimate": "< -0.25"}, {"substance": "SSDWREAGCSISSLSGSCQI", "growth estimate": -0.235}, {"substance": "SSDYHSLELGGSGVAAVI", "growth estimate": "< -0.25"}, {"substance": "SSEGEMI", "growth estimate": "< -0.25"}]}]}
